In the M2OR odorant receptor database:
Only a part is listed here, and it is no random draw. Calls are pooled over several reports, among them a noisy single-well screen. The list shows a part of the results. Some of the results follow.

Chains of the proteins cited; added tags and fusions are not shown. Lines headed by an entry give the natural chain unless they say otherwise; changes in a name come on top.
UniProt Q96RD3: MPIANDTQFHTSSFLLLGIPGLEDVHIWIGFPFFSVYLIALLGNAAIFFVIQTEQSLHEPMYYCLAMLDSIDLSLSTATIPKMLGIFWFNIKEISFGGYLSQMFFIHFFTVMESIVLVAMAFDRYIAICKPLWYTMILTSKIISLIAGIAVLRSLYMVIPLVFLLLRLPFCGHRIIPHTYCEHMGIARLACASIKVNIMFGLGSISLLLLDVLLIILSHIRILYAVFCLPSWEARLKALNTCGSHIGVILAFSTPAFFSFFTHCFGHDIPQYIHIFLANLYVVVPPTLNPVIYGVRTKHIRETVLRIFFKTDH

Columns and labels:
Settings in all cases: stereoisomer not certain
OR51I2 (Homo sapiens) = target: T1, OR51I2 (Homo sapiens) (UniProt Q9H344)
T1 sequence (whole entry): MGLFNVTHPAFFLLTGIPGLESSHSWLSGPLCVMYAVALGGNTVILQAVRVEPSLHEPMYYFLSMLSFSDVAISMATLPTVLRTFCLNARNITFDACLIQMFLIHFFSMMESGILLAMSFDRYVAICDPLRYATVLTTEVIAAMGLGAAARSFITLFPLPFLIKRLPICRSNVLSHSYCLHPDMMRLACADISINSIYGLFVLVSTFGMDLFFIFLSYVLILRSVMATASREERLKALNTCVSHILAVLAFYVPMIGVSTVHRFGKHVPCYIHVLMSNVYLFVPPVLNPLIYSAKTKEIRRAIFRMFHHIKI
In short: (§1)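 Each receptor–molecule pair is labelled responsive or non-responsive (inactive) according to whether the original authors judged the measured signal statistically different from baseline. The data were taken from the main text and supplementary material of published papers and checked for typos and inconsistencies. Assay methods differed by source, with transient luciferase assays in mammalian cell lines being common.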

OR51L1 (Homo sapiens) = target: T2, OR51L1 (Homo sapiens) (UniProt Q8NGJ5)
T2 sequence (whole entry): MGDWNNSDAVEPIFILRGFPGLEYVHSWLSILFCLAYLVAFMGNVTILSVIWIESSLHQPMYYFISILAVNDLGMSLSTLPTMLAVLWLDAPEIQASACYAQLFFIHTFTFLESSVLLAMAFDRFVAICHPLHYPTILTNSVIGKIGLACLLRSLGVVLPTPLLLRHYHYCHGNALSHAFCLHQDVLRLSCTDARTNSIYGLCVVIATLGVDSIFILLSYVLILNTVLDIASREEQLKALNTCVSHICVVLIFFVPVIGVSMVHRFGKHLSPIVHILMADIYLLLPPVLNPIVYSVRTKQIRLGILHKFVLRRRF
In short: as §1

OR51S1 (Homo sapiens) = target: T3, OR51S1 (Homo sapiens) (UniProt Q8NGJ8)
T3 sequence (whole entry): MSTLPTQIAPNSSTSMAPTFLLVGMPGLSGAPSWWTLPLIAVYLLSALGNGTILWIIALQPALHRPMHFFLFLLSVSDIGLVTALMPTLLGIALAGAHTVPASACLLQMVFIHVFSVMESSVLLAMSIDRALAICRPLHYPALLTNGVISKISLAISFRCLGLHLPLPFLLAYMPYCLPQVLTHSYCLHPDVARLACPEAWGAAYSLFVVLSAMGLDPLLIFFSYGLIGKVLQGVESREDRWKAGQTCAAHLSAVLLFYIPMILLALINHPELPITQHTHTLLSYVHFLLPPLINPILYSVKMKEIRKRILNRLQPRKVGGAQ
In short: as §1

OR52A4P (Homo sapiens) = target: T4, OR52A4P (Homo sapiens) (UniProt A6NMU1)
T4 sequence (whole entry): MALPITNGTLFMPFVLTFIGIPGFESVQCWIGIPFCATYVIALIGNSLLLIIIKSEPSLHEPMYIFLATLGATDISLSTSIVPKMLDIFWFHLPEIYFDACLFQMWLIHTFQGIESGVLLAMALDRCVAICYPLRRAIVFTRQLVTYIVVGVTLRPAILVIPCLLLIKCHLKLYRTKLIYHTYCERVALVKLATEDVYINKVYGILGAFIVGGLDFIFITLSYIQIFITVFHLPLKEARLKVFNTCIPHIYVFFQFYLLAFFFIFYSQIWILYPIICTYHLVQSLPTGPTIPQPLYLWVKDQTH
In short: as §1

OR52A5 (Homo sapiens) = target: T5, OR52A5 (Homo sapiens) (UniProt Q9H2C5)
T5 sequence (whole entry): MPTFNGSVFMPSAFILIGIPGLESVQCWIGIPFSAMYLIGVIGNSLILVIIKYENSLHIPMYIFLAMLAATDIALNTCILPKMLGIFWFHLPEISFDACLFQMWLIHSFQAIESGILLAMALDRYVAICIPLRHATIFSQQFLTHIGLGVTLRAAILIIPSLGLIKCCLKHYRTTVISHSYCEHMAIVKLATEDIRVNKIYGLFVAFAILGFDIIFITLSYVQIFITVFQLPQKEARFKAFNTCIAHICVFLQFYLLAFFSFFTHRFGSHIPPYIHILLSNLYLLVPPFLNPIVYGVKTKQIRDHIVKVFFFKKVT
In short: as §1

OR52B4 (Homo sapiens) = target: T6, OR52B4 (Homo sapiens) (UniProt Q8NGK2)
T6 sequence (whole entry): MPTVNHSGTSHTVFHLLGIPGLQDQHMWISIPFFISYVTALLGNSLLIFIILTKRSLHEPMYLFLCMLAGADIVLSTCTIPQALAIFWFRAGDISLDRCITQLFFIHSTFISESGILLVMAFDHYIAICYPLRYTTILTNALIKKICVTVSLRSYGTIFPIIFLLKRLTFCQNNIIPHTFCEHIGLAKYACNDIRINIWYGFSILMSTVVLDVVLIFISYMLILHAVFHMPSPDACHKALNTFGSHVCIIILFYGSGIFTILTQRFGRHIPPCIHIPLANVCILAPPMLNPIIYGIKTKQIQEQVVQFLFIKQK
In short: as §1

OR52D1 (Homo sapiens) = target: T7, OR52D1 (Homo sapiens) (UniProt Q9H346)
T7 sequence (whole entry): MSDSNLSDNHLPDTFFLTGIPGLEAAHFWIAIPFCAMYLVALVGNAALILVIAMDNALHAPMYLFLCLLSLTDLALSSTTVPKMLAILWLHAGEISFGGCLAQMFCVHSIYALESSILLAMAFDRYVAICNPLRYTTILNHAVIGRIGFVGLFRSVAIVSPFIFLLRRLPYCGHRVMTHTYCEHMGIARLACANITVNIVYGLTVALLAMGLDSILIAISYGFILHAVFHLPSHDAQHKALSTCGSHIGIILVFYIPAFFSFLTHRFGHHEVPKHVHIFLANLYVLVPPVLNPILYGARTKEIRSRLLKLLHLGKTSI
In short: as §1

OR52E6 (Homo sapiens) = OR52E6 (Homo sapiens) (UniProt Q96RD3)
In short: as §1

OR52H1 (Homo sapiens) = target: T8, OR52H1 (Homo sapiens) (UniProt Q8NGJ2)
T8 sequence (whole entry): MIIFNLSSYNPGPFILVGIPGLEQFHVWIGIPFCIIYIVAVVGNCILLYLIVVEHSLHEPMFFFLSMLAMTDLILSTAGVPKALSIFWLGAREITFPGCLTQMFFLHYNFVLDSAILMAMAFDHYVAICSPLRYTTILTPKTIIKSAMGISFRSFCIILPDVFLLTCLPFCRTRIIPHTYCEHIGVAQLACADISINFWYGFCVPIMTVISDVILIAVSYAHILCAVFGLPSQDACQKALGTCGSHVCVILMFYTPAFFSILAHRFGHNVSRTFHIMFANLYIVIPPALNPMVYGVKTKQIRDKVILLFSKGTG
In short: as §1

OR52K1 (Homo sapiens) = target: T9, OR52K1 (Homo sapiens) (UniProt Q8NGK4)
T9 sequence (whole entry): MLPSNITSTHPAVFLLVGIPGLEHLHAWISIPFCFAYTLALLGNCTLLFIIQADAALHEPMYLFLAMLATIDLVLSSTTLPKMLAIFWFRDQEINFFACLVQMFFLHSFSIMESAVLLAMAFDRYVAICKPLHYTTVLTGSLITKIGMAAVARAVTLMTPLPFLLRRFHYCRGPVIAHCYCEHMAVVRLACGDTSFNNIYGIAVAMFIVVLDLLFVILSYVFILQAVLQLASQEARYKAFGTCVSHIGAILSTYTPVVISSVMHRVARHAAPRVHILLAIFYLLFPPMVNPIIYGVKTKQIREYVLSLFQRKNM
In short: as §1

Measured: odorant receptor agonist call

CS
active: OR51L1 (Homo sapiens)
inactive: all other assays above
